Some of the results follow. The main result of the screen is listed elsewhere. These columns were measured beside it and carry no call. The list favours compounds with an active or inconclusive main result. Potencies come from curve fits of mixed quality, noted in brackets.

The experiment is described as follows: IkB Signaling. As to conditions: ABC-DLBCL IkBa-CBG/CBR dual luciferase ratio (green luciferase fused to IkBa over red control in OCI-Ly3 lymphoma cells), 4 h; measured here: control luc red channel unless noted. The gist of the method:
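Curves were fitted separately to fusion (green), unfused (red) and ratio luminescence, then classed by r2, magnitude and activity. Cells: OCI-Ly3, 4 h compound plus doxycycline at 37C; 10 uM MG-132 defined full response.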
What is called AC50 is the midpoint of the concentration-response curve, whichever way the signal moves. For the compound `CCCC(=O)N1c2ccccc2-c2nnc(SC)nc2OC1c1sccc1C` (stereo not drawn), the AC50 is 25.1 µM [falling, partial curve].
As to `C[C@]12C=CC(=O)C=C1CC[C@@H]1[C@H]3C[C@@H](O)[C@](O)(C(=O)CO)[C@]3(C)C[C@H](O)[C@]12F`, the half-maximal activity concentration (AC50) was 25.1 nM [rising, full curve] [measured here: IkB-luc green channel].
On to `COc1ccc(-n2c(Cc3cccn3C)nnc2SCC(=O)Nc2cc(C)cc(C)c2)cc1`, for which the AC50 was 15.8 µM [falling, partial curve].
For `CC(Oc1ccccc1)C(=O)Nc1c(C(=O)Nc2cccc(F)c2)oc2ccccc12` (stereo not drawn), the AC50 is 12.6 µM [falling, partial curve].
For `Cc1ccc2oc(=O)c3cnn(CC(=O)N4CCN(c5cccc(Cl)c5)CC4)c3c2c1`, the AC50 is 3.16 µM [falling, single point].
Take `Cc1cc(CN2CCN(CCC#N)CC2)c(O)c(C2(C)CCCCC2)c1`: the half-maximal activity concentration (AC50) was 10 µM [falling, partial curve].
For `CCOC(=O)c1[nH]c(C)c(CCC(=O)N2CCN(c3cc(C)ccc3C)CC2)c1C`, the AC50 was 25.1 µM [falling, single point].
`CCOc1ccc(OCC)c(NC(=O)CN(C)S(=O)(=O)c2ccc3[nH]c(=O)oc3c2)c1`: the AC50 was 20 µM [falling, partial curve].
In the case of `Cc1ccc(NC(=O)c2nc(S(=O)(=O)Cc3ccc(F)cc3)ncc2Cl)cc1C`, the half-maximal activity concentration (AC50) is 6.31 µM [falling, full curve].
As for `Cc1cccc(C(=O)Nc2ccc3nc(SCC(=O)N4CCCC4)sc3c2)c1`, the figure is 25.1 µM [falling, partial curve]; as for `O=C(CSc1nc(=O)[nH]c2c1CCC2)Nc1cc(C(F)(F)F)ccc1Cl`, 39.8 µM [falling, single point].
Under `COc1cc(CNC(=O)c2ccc(NC(=O)N3CCCCc4ccccc43)cc2)cc(OC)c1OC` stands 10 µM [falling, partial curve]; under `CCc1ccccc1NC(=O)C1CCCN(S(=O)(=O)c2ccc3[nH]c(=O)ccc3c2)C1` (stereo not drawn), 15.8 µM [falling, single point].
As to `CCOc1ccccc1C1CC(=O)Nc2cc3c(cc21)OCO3` (stereo not drawn), the concentration at half-maximal activity (AC50) is 39.8 µM [falling, single point].
In the case of `COc1ccc(OC)c(CCNC(=O)CCCn2c(=O)c3cccn3c3cccnc32)c1`, the AC50 was 3.16 µM [rising, partial curve].
`COc1ccc(N2CCN(C(=O)CSc3nc(-c4ccccc4)no3)CC2)cc1`: the AC50 was 1.58 µM [falling, full curve].
Consider `CC1N(C)c2cc(NC(=O)c3ccco3)ccc2C1(C)C` (stereo not drawn), for which the concentration at half-maximal activity (AC50) was 39.8 µM [falling, single point].
Regarding `COc1ccc(Cn2c(C3CC3)nc3ccc(NC(=O)c4ccco4)cc3c2=O)cc1`, the concentration at half-maximal activity (AC50) was 31.6 µM [falling, partial curve].
As for `COc1ccc(-n2nc3c(N4CCC(C(=O)NC5CCCCC5)CC4)nnc(C)c3c2C)cc1`, the AC50 is 12.6 µM [falling, partial curve].
Under `CCc1nc2c(cnn2-c2ccc(C)cc2)c(=O)n1Cc1ccccc1` stands 6.31 µM [falling, partial curve]; under `CCOC(=O)N1CCN(C(=O)C2CCN(c3ncnc4c3sc3cccc(F)c34)CC2)CC1`, 15.8 µM [falling, partial curve].
Regarding `Cc1ccc(-c2onc(C)c2C)cc1S(=O)(=O)NCc1ccc(N(C)C)cc1`, the AC50 is 20 µM [falling, partial curve].
For the compound `CCc1ccc(NC(=O)Cn2c(=O)n(CCCCC(=O)NCc3ccccc3Cl)c(=O)c3ccccc32)cc1`, the AC50 was 39.8 µM [falling, single point].
Take `COc1ccc(NC(=O)c2cc(C)nc3c2c(C)nn3-c2ccc(C)cc2)cc1OC`: the AC50 is 1 µM [falling, full curve, poor fit].
Under `CCOc1cc(OCC)cc(C(=O)Nc2cccc(-c3nc4ccccc4[nH]3)c2)c1` stands 2 µM [falling, full curve].
As for `C=CCC(CC=C)(CNC(=O)C(=O)Nc1ccc(C)cc1)c1ccccc1`, the figure is 1.26 µM [falling, full curve]; as for `COc1ccccc1-c1nnc(C2CCN(C(=O)c3cccc(C)c3)CC2)o1`, 31.6 µM [falling, single point].
Regarding `O=C(NCc1ccccc1)C(=O)NCC(c1ccco1)S(=O)(=O)c1ccc(Cl)cc1` (stereo not drawn), the half-maximal activity concentration (AC50) is 39.8 µM [falling, single point].
As for `CCCN1C(=O)c2[nH]nc(-c3ccccc3)c2C1c1cccc(O)c1` (stereo not drawn), the AC50 is 20 µM [falling, single point].
Turning to `Cc1ccc(NC(=O)c2oc3ccccc3c2NC(=O)Cc2ccccc2)cc1`, the AC50 was 15.8 µM [falling, partial curve].
Take `CC12CC(NC(=O)N1CCc1ccccc1)c1ccccc1O2` (stereo not drawn): the concentration at half-maximal activity (AC50) is 20 µM [falling, partial curve].
On to `COc1ccccc1NC(=O)CSC1=Nc2ccccc2C2=NC(Cc3ccccc3)C(=O)N12` (stereo not drawn), for which the AC50 was 15.8 µM [falling, partial curve].
On to `CCn1cc2nc(SCC(=O)Nc3ccc(C)cc3)n(Cc3ccc(C)cc3)c(=O)c2n1`, for which the AC50 was 25.1 µM [falling, single point].
With `c1ccc(-c2nnc(-c3ccccn3)nn2)nc1`, the AC50 was 10 µM [falling, partial curve].
As for `Nn1c(CSc2nc3ccccc3o2)nnc1CSc1nc2ccccc2o1`, the AC50 is 10 µM [falling, partial curve].
As for `Cc1[nH]c2ccc(Br)cc2c1CCNC(=O)c1cc2ccccc2oc1=O`, the figure is 10 µM [falling, partial curve].
In the case of `O=S(=O)(NCCS(=O)(=O)N1CCN(c2cccc(Cl)c2)CC1)c1ccc(F)cc1`, the AC50 was 3.98 µM [falling, partial curve].
Under `CCOc1ccc(C2=NC(c3cccs3)=Nc3ccc(CC)cc3N2)cc1OCC` stands 0.2 µM [rising, full curve].
Under `COc1ccc(-n2nc3cc(C)c(NC(=O)c4ccc(-c5ccc(Br)cc5)o4)cc3n2)cc1` stands 10 µM [rising, partial curve]; under `CC(=O)N1CCCc2cc(S(=O)(=O)N3CCCC(C(=O)Nc4ccc(C)cc4C)C3)ccc21` (stereo not drawn), 0.0501 µM [falling, full curve]; under `O=C(Nc1ccc2nsnc2c1)c1ccc2c(c1)OCO2`, 7.94 µM [falling, partial curve].
As for `CCCCOc1ccc(NC(=O)CSCC(=O)OCC)cc1`, the figure is 15.8 µM [falling, partial curve]; as for `Cc1cccc(NC(=O)CN2C(=O)C(c3ccccc3)=NC23CCC(C)CC3)c1` (stereo not drawn), 12.6 µM [falling, partial curve].
Regarding `Cc1cc(C)n(CCc2nc3c4ccccc4nc(N4CCN(c5cccc(C)c5C)CC4)n3n2)n1`, the concentration at half-maximal activity (AC50) is 39.8 µM [falling, single point].
Under `CC1CCc2cc(F)ccc2N1C(=O)c1cc2nc(-c3ccco3)cc(C(F)(F)F)n2n1` (stereo not drawn) stands 15.8 µM [falling, partial curve]; under `CCCCN(C)CCCNC(=O)CN1N=C(c2ccc(OC)cc2)CCC1=O`, 39.8 µM [falling, single point]; under `Nc1nc2c(s1)CCc1c-2cnn1-c1ccccc1`, 39.8 µM [falling, single point].
In the case of `Cc1csc(NC(=O)c2c(O)c3c(n(CC(C)C)c2=O)CCCC3)n1`, the AC50 was 3.16 µM [falling, full curve].
As for `Cc1ccc(CCNC(=O)c2ccc3[nH]c(C)c(C)c3c2)cc1`, the figure is 25.1 µM [falling, single point]; as for `O=C(NCCOc1ccccc1)c1ccc2c(c1)OCO2`, 12.6 µM [falling, partial curve].
As for `COc1ccc(OC)c(NS(=O)(=O)c2ccc(-n3cccn3)cc2)c1`, the figure is 15.8 µM [falling, partial curve]; as for `CCCCNC(=O)C(CC)Sc1nc2ccccc2c(=O)n1Cc1ccco1` (stereo not drawn), 25.1 µM [falling, partial curve].
Regarding `Cc1cccc(N(C)S(=O)(=O)c2nnc(NC(=O)c3cccs3)s2)c1`, the concentration at half-maximal activity (AC50) was 20 µM [falling, single point].
Turning to `CCCCCOC(=O)NCCOC(=O)Nc1ccc(C(=O)OCC)cc1`, the half-maximal activity concentration (AC50) is 31.6 µM [falling, partial curve].
As for `CCOC(=O)c1cccc(NC(=O)Cn2c(=O)c3cccn3c3ccccc32)c1`, the figure is 15.8 µM [falling, partial curve]; as for `CCCCNC(=O)CC1Nc2ccccc2NC1=O` (stereo not drawn), 3.16 µM [rising, partial curve].
As to `CCn1nnnc1SCC(=O)Nc1nc(-c2cccs2)cs1`, the AC50 was 39.8 µM [falling, single point].
As for `COc1ccccc1NC(=O)C1=C(C)Nc2nc(SCc3ccccc3)nn2C1c1cccc(O)c1` (stereo not drawn), the AC50 is 12.6 µM [falling, partial curve].
For `C=CCc1cccc2cc(C(=O)N3CCN(C(=O)OCC)CC3)c(=O)oc12`, the AC50 was 7.94 µM [rising, single point] [measured here: IkB-luc green channel].
For `CCn1c(=O)cc(OCC(=O)N2CCN(c3ccc(C)cc3)C(C)C2)c2ccccc21` (stereo not drawn), the AC50 is 12.6 µM [falling, partial curve].
Consider `COc1ccc(-c2noc(CCC(=O)N3CCN(Cc4ccccc4)CC3)n2)cc1`, for which the half-maximal activity concentration (AC50) is 12.6 µM [falling, partial curve].
For `CCOC(=O)c1c(C)[nH]c(C(=O)CN2C(=O)NC(CC)(c3ccccc3)C2=O)c1C` (stereo not drawn), the AC50 is 25.1 µM [falling, partial curve].
Regarding `CC(c1ccco1)N(C(=O)COc1ccc(Cl)cc1Cl)c1ccccn1` (stereo not drawn), the AC50 was 25.1 µM [falling, single point].
